In PMC4231161:
These are yes or no findings as the source states them, for the method shown. In cells and extracts the contact can be indirect. A result given as binding can be weak or reduced; the word gives no strength.

Biological target: myosin light chain 1 (MLC1) (Toxoplasma gondii (endogenous in tachyzoites))
Experiment: co-IP; polyclonal anti-MLC1 or anti-GAP45 antibodies on [35S]-labelled wild type (RH) and MyoA-KO parasites and on MyoA-iKO parasites +/- ATc, Triton X-100 lysate, autoradiography, bands quantified with ImageJ

B1: gliding-associated protein GAP45 (protein, UniProt Q7Z289 1-245)
chain: MGNACKKNTAKTPTRKEAEDLAEKERQEREAKEKAEAEEKARAEAEKNAADKAEAERRAAEAREREESARKEAEAEAARKAEAEAAEAERLRKEAEKKKAEEAKRKAEEEQRAAAEEAEQRAREEAERRKAEAAAAAERERQMQEALKQEEMSPREKYDKLASPEDSASETTMATQPQKVAEHSSAAVTDRSVVGYTVTPCDMAAIDETAKYLSKRCGCDLGDQHDENECPICRHIDLSDAPLLN
  binding: binds
